Positions count from the first letter of the chain named. Results are given in words; binding and its absence hold for the method and conditions named. For some of these results: A result given as binding can be weak or reduced; the word gives no strength. Tags and fused reporters may be left off the sequences shown.
How the values were obtained:
[1] = molecular target: T1, GST-tagged F1 region of MP-GAP (AA255-641) (human) (UniProt Q6P4F7); assay: pull-down
T1 sequence: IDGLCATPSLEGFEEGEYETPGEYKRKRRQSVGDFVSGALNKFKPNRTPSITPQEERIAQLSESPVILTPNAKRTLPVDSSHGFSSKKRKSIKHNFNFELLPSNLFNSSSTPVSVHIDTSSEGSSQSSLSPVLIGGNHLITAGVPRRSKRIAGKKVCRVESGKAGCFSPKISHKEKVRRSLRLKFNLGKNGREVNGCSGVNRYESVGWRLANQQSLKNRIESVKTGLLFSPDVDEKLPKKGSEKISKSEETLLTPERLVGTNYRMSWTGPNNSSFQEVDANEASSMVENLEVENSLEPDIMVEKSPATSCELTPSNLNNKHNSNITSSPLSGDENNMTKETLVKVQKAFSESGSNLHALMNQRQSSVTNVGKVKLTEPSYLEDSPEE

[2] = molecular target: T2, GST-tagged phosphomimetic F1 region of MP-GAP (S285D, S304D, S345D) (human) (UniProt Q6P4F7); assay: pull-down
T2 sequence: T1 sequence with S31D, S50D, S91D

[3] = molecular target: T3, GST-tagged F2 region of MP-GAP (AA641-1023) (human) (UniProt Q6P4F7); assay: condition: 1 µg 6xHis-GAP domain with 2 µg GST fragment
T3 sequence: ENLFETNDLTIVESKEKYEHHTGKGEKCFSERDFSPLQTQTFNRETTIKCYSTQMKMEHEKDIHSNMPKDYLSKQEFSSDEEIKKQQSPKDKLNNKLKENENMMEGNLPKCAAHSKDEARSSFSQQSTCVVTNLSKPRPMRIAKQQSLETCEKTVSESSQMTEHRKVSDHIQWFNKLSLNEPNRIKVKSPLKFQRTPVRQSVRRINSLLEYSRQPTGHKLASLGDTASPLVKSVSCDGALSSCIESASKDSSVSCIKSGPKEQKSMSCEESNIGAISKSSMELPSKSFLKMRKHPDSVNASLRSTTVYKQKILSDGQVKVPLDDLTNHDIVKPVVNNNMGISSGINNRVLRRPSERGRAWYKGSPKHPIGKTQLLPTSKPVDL

[4] = molecular target: T4, GST-tagged GAP domain of MP-GAP (AA2-253) (human) (UniProt Q6P4F7); assay: as above
T4 sequence: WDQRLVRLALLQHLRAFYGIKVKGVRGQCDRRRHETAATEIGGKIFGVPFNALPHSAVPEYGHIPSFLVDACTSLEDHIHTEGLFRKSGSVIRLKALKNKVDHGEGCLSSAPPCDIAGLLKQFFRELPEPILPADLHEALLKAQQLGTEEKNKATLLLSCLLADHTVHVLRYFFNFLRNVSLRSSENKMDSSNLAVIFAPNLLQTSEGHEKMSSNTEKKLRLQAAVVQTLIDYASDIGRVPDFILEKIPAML

binding [1]: binds | binding [2]: binds | binding [3]: no binding | binding [4]: no binding
Substance: 6xHis-tagged GAP domain of MP-GAP (human) (domain or fragment)

From article doi:10.1101/2023.08.08.552464
